This passage reports binding results from article PMC7594455.

This experiment has as its target T1, Ubp8-TAP (yeast (endogenous in yeast cells)) (UniProt P50102).
T1 sequence: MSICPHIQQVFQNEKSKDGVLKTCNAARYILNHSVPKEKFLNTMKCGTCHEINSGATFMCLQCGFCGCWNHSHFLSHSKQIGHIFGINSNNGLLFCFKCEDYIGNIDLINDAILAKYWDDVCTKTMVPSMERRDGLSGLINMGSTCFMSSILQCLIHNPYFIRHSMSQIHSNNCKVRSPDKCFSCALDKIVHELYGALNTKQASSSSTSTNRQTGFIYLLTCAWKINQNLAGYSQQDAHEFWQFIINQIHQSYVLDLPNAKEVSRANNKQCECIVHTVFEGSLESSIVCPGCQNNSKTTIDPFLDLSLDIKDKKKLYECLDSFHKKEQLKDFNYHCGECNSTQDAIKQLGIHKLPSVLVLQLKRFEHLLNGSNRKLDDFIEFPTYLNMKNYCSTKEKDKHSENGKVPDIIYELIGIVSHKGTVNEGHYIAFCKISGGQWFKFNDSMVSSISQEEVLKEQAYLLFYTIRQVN
The experiment is described as follows: tandem affinity purification with western blot; Ubp8-TAP purified by tandem affinity purification; Spt8 detected by western blot (α-Spt8); strain not told.

No constants are given. Whether binding was seen depends on the method and setting. Some results given as binding are weak or reduced against the parent protein; the word gives no strength.

B1: Spt8 (protein, UniProt P38915 1-602)
chain: MDEVDDILINNQVVDDEEDDEEMLSGLENDSKQDLEGNDDGGEDEEDDDDDDEDDDDDEDEREDDDEQEDDDGEDDAARMDKTATPTNEHQHDEQKAAAAGAGGAGDSGDAVTKIGSEDVKLSDVDGGVGSREASSSTHEASANGEVYEYYKHMLNAAQIADSYNIYPTAAIPIQTHVNALAVSRGLKYLFLGGSDGYIRKYDLLNTLEGKLSLTILQKHSLAESIQNAGILQSYWENEIPQKKSEMKLSANKTDYEPKVSPVHSLEVQSECLFILSGLQNGGITMQGVRYMEGSIAHYFKGRNGHTQIVNILRLNGQEDRFLSGSWDKRLLEWDLQTGDIVNEFKKSRSELSSLEMRPLYSSVDVSGNVNSGKENENADDDMDSLFGDEDEDEKQDAGNEPVETGDGSNGEENKEQISEESLNIVYDESVFMTSGLNGSVHIWDRRMTQSPALSLERGAGVPPWCLSACWGVDGDHVYAGRRNACVEQFDLKMPSKPIHNLKLPSISGPVSCVKAMPNNKHLLCASRDNIRLYNVEIAVDASNSTTKSSKVPFLIVPGHHGGIISNLYLDPTSRFIISTSGNRGWQGNSTDTTLIYDIDLE
Regarding B1, the binding entry is reported as “binds”.
